Laboratory results taken from US20150352040A1 (priority 2010, published 2015).

Tested on: human patients
Assay: Efficacy of topical opioid analgesic formulations in human patients (Example 6)
Assay type: in vivo
Text: The efficacy of topical opioid analgesic formulations was studied in human patients.

Question: What does the source list for CN1CC[C@]23c4c5ccc(O)c4O[C@H]2[C@@H](O)C=C[C@H]3[C@H]1C5.O=S(=O)(O)O [morphine sulfate]?
Answer: duration of pain reduction (Patient G, 3 mg topical in Pass-gel to the nuchal region): several hours; duration of pain reduction (Patient K, topical 2.5 mg to the nuchal region): several hours; duration of pain reduction (Patient L, topical 2.5 mg to the nuchal region): the rest of the day
